From ChEMBL document CHEMBL3988442, “University of Dundee, Small-Polar-MMV Screening Library” (2021).

Results are given as percent effect.
The record does not define 0% and 100%; most values in the screen are far below 50% and negative numbers occur (in some assays of this library far below -100).
This is an unselected part of the compounds tested.
Two or more numbers in one place are separate tests of the same structure; such repeats can differ widely.

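Viability assay of Plasmodium falciparum sporozoites; the read-out is not stated. The concentration is filed as 10 mM, unlikely as a test dose, so the dose is not known. The record gives no direction; compounds that gave an IC50 in retests scored well above the rest, so higher reads as lower viability. Strong results were mostly tested again. Of about 34,000 compounds tested this way, about 280 (0.84%) reached 50% or more in at least one test.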

SMILES | effect
COc1ccc(CC(=O)N2CCCC(n3nc(C)cc3C)C2)cc1 (stereo not drawn) | 5.817
CCN(C(=O)CN(C)C(c1cccc(F)c1)c1ccccn1)C1CC1 (stereo not drawn) | -12.92
CN(C)S(=O)(=O)c1ccc(CN2CCCC2c2ccccc2)o1 (stereo not drawn) | 14.43
Cc1cc(C)c2nc(CNCCNS(C)(=O)=O)cc(O)c2c1 | 5.818 & -7.858
CC(C(=O)N(C)Cc1ccc(Br)o1)n1cncn1 (stereo not drawn) | 0.111
Cc1cnn(CCNCCCOc2ccccc2)c1 | -6.764
CCN1C(=O)CCCC12CCCN(C(=O)c1occc1C)C2 (stereo not drawn) | 6.918
COc1ccc(OCc2nc(C(=O)N3CCC(NC(C)=O)C3)co2)cc1 (stereo not drawn) | 0.7895
Fc1ccc(CN2CCC(c3nccnc3-n3ccnc3)CC2)cc1 | -4.147
Cc1ccc2c(c1)C1(CC2)CCN(c2nncs2)CC1 | -9.261
COCCN1CCC2(CCN(Cc3ccc(OC)cc3)CC2)C1=O.O=C(O)C(F)(F)F | 8.669
Cc1cccc(CN2CCOC(C)(C(=O)N3CCOCC3)C2)n1 (stereo not drawn) | 13.26
O=C(Cc1cccnc1)NCCSc1ccccc1F | -17.08
O=C(O)C(F)(F)F.[H][C@@]12CCN(S(=O)(=O)c3cccs3)C[C@]1([H])[C@@H](CN(C)C)OC2 | -5.034
CC(C)CCNC(=O)C1CCCN1C(=O)Nc1cccc(F)c1 (stereo not drawn) | 4.246
COCC1CN(CCOc2ccc(Cl)cc2)Cc2c1cnn2C.O=C(O)C(F)(F)F.O=C(O)C(F)(F)F (stereo not drawn) | 8.608
CC(C)(O)CN1CCN(C(=O)c2sccc2C2CC2)CC1 | -13.6
[H][C@@]12CN(Cc3cccc(-c4ccccc4C)c3)C[C@]1(C(=O)O)CNC2=O | -4.379
CC(=O)N1CCC2(CCN(S(=O)(=O)c3ccccc3)CC2)C1 | 13.4
Cc1ccc(CN(CCN(C)C)C(=O)Nc2cc(C(N)=O)ccc2C)s1 | 4.912
COc1ccc(C2=CCN(C(=O)CN(C)CC(N)=O)CC2)cc1 | -13.73
CCC1(CNCc2ncc[nH]2)CCCC1 | -80.65
CC(=O)N1N=C(c2ccccc2)OC1C(=O)NCCC1=CCCCC1 (stereo not drawn) | -4.711
CCc1nc(C2CCCN2C(=O)c2cnns2)no1 (stereo not drawn) | 4.962
Cc1cc(OCC(=O)NS(=O)(=O)c2cccnc2)ccc1Cl | 6.856
Cc1ccc(C)c(OC(C)C(=O)NCCNc2cccnc2)c1 (stereo not drawn) | -4.852
Cc1cnn(CC2CCCCN2Cc2nnsc2Cl)c1 (stereo not drawn) | 12.59
O=C(Cn1nc(-c2ccc(F)cc2)oc1=O)NCCc1ccccc1 | 3.012
O=C(O)C(F)(F)F.[H][C@@]12CCN(C(=O)C(C)C)CC[C@]1(C(=O)N1CCCC1)CCN2C | 0.08757
[H][C@@]12CCN(Cc3ccncc3)C[C@]1([H])[C@@H](CNc1ncccn1)OC2 | 12.31
CCn1cnnc1C1CCN(C(=O)c2cc3c(s2)CCOC3)CC1 | -2.785
CCCc1noc(CN2CCCC2c2ccsc2)n1 (stereo not drawn) | -5.016
CC(C(=O)N1CCOCC1)n1cncn1 (stereo not drawn) | 5.478
O=C(NC1CCN(c2snc3ccccc23)CC1)C1CCC1 | -20.05
[H][C@]12CCN(S(=O)(=O)c3cccs3)C[C@@]1([H])OCCN(C(C)=O)C2 | -5.546
CNc1cncc(C2CCN(S(C)(=O)=O)CC2)n1 | 0.2583
CNC(=O)CN1CCc2c(CNc3nccs3)n[nH]c2C1.O=C(O)C(F)(F)F | 15.73 & 14.52
Cc1noc(C)c1-c1cncc(C2CCCN2Cc2nccs2)n1 (stereo not drawn) | 1.752
Cc1ccc(-c2n[nH]cc2CNCC2CCN(CC(C)O)CC2)cc1 (stereo not drawn) | 8.201
CN1C(=O)c2ccc(C(=O)N(Cc3cnn(C)c3)C3CC3)cc2C1=O | 2.507
c1cnc(N2CCCC(c3cncc(-n4ccnc4)n3)C2)nc1 (stereo not drawn) | -3.515
Cn1nc2c(cc1=O)CN(Cc1nc(C(C)(C)C)no1)CC2 | 2.206
O=C(O)C(F)(F)F.[H][C@@]12COC[C@]1([H])[C@@H](OCc1csc(C)n1)CN2C(=O)c1cccn1C | 5.026
O=C(c1cc2ccccc2[nH]1)N1CCC(Nc2cccnn2)CC1 | -7.341
COc1cccc2c1OCC(C(=O)N1CCSCC1)C2 (stereo not drawn) | -8.158
CN1CCCC1c1nccnc1-c1ccc(C(=O)O)cc1 (stereo not drawn) | 18.05
CC(=O)N1CCN(C(=O)CCCc2nnc(-c3ccccc3)o2)CC1 | 14.6
Cc1ccccc1CC(=O)N1CC[C@@](O)(CNS(C)(=O)=O)[C@H](O)C1 | 12.64
CCC(=O)N1CCC2(C=C(C(=O)N3CCCC3)c3ccccc32)CC1 | 8.932
CCc1nccn1CCCNC(=O)CN1CCN(c2ncccn2)CC1 | 0.08772
Cc1n[nH]c(C)c1CC(=O)N1CC[C@@](C)(O)[C@H](Oc2ccccc2)C1 | 5.826
CCCn1nccc1-c1cc(C2CCN(C(C)=O)CC2)ccn1 | 0.8414
COC(=O)CCNC(=O)C1CC(=O)N(C2CCCC2)C1 (stereo not drawn) | -18.94
CC(NC(=O)NCCCN(C)S(C)(=O)=O)c1ccc(C#N)cc1 (stereo not drawn) | 5.047
[H][C@]12CC[C@]([H])(CC(=O)NC1)N2C1CCOCC1 | -10.02
O=C(NCC1CC1)Nc1ccc(OCC(F)(F)F)nc1 | 13.38
CCn1cc(CN2CCCN(C(=O)CCc3nccs3)CC2)cn1 | 5.27
c1cc(CCN2CCN(c3ccc4nncn4n3)CC2)ccn1 | 15.58
COc1ccc(OC)c(CN2CCCCCC2c2cccs2)c1 (stereo not drawn) | 7.263
N[C@@H]1c2ccccc2C2(CCN(C(=O)c3ccccc3O)CC2)[C@H]1O | 0.7455
COCCNC(=O)C(C)n1nc(-c2ccc(C)o2)cc(N)c1=O (stereo not drawn) | 16.11
Cn1nccc1CCC(=O)N1CCCC(c2cnccn2)C1 (stereo not drawn) | 5.774
N#Cc1c(SCCN2CCOCC2)sc2c(O)cc(O)nc12 | 3.158
Cc1nc(CN(C)C(=O)Nc2cccc(C)c2C)no1 | -0.8242
COc1ccc(CCC(=O)N2CCCCC2Cn2cccn2)cc1F (stereo not drawn) | 10.58
CN(C)S(=O)(=O)N(C)C(c1cccc(F)c1)c1ccccn1 (stereo not drawn) | 6.035
Cc1ccc(C(=O)N2CCCC(Nc3ccc(F)cc3)C2)cc1 (stereo not drawn) | -5
O=C(O)C(F)(F)F.[H][C@@]12COC[C@]1(CNC(=O)c1ccco1)CN(Cc1scnc1C)C2 | 4.427
CC(=O)N1CCc2c(nc(N(C)C)nc2N(C)CC2CCCO2)C1 (stereo not drawn) | -11.58
[H][C@@]12CS(=O)(=O)C[C@]1([H])N(Cc1ccc(F)c(C)c1)CCN2C(=O)C(C)C | -16.13
Cc1nccc(NCc2cncc3c2CCN(CC2CCOC2)C3)n1.Cl.Cl (stereo not drawn) | 5.592
Cc1ccc(CN2CCCC(c3nnc(CN4CCCC4)n3C)C2)s1 (stereo not drawn) | -2.895
CC(C)C(=O)Nc1ncn(Cc2cccc(Br)c2)n1 | -15.96 & -22.11

The first 7 entries again:

SMILES	effect
COc1ccc(CC(=O)N2CCCC(n3nc(C)cc3C)C2)cc1 (stereo not drawn)	5.817
CCN(C(=O)CN(C)C(c1cccc(F)c1)c1ccccn1)C1CC1 (stereo not drawn)	-12.92
CN(C)S(=O)(=O)c1ccc(CN2CCCC2c2ccccc2)o1 (stereo not drawn)	14.43
Cc1cc(C)c2nc(CNCCNS(C)(=O)=O)cc(O)c2c1	5.818 & -7.858
CC(C(=O)N(C)Cc1ccc(Br)o1)n1cncn1 (stereo not drawn)	0.111
Cc1cnn(CCNCCCOc2ccccc2)c1	-6.764
CCN1C(=O)CCCC12CCCN(C(=O)c1occc1C)C2 (stereo not drawn)	6.918